Data: the supplement of paper PMC10849652
The list shows a part of the results.

By UniProt entry, the sequences of proteins in these tests, tags left out. Where a name states a change or a piece, a line headed by the entry shows the natural chain unless it says otherwise.
UniProt Q96SZ5, whole entry, looked up: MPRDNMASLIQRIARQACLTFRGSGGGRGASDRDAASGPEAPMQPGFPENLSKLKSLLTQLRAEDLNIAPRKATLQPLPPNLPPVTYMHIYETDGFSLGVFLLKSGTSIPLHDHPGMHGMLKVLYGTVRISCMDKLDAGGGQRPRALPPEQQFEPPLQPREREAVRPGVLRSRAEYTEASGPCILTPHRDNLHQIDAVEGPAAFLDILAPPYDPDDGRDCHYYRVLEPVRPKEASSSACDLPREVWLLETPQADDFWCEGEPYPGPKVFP
UniProt Q01432: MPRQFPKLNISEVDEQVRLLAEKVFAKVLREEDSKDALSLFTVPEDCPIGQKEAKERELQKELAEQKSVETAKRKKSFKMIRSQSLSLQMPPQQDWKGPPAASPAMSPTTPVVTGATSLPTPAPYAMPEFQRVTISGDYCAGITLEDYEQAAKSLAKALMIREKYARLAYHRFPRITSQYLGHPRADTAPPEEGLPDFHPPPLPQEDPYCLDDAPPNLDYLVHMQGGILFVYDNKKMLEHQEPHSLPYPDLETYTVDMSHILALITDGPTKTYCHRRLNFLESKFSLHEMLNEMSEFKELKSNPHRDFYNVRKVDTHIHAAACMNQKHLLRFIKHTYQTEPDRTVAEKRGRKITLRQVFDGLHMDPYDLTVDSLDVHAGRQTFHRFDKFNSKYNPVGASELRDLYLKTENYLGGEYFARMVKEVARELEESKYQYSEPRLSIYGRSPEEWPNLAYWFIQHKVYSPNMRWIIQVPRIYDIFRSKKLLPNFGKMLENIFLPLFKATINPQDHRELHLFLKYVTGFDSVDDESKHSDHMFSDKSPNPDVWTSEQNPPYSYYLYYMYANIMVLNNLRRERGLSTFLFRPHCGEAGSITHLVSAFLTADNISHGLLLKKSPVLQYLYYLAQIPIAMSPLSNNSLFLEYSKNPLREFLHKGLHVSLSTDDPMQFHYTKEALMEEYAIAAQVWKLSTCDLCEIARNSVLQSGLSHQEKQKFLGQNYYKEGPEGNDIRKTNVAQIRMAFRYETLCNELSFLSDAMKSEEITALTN
UniProt Q13155: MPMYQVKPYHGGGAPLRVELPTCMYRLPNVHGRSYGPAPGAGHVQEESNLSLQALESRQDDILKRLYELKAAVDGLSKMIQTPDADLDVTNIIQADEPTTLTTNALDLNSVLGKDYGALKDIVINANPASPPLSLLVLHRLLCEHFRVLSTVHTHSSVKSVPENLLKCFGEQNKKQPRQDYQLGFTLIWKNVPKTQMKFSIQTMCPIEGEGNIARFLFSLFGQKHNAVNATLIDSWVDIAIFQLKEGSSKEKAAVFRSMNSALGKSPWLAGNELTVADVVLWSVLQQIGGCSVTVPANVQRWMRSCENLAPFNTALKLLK
UniProt P35573: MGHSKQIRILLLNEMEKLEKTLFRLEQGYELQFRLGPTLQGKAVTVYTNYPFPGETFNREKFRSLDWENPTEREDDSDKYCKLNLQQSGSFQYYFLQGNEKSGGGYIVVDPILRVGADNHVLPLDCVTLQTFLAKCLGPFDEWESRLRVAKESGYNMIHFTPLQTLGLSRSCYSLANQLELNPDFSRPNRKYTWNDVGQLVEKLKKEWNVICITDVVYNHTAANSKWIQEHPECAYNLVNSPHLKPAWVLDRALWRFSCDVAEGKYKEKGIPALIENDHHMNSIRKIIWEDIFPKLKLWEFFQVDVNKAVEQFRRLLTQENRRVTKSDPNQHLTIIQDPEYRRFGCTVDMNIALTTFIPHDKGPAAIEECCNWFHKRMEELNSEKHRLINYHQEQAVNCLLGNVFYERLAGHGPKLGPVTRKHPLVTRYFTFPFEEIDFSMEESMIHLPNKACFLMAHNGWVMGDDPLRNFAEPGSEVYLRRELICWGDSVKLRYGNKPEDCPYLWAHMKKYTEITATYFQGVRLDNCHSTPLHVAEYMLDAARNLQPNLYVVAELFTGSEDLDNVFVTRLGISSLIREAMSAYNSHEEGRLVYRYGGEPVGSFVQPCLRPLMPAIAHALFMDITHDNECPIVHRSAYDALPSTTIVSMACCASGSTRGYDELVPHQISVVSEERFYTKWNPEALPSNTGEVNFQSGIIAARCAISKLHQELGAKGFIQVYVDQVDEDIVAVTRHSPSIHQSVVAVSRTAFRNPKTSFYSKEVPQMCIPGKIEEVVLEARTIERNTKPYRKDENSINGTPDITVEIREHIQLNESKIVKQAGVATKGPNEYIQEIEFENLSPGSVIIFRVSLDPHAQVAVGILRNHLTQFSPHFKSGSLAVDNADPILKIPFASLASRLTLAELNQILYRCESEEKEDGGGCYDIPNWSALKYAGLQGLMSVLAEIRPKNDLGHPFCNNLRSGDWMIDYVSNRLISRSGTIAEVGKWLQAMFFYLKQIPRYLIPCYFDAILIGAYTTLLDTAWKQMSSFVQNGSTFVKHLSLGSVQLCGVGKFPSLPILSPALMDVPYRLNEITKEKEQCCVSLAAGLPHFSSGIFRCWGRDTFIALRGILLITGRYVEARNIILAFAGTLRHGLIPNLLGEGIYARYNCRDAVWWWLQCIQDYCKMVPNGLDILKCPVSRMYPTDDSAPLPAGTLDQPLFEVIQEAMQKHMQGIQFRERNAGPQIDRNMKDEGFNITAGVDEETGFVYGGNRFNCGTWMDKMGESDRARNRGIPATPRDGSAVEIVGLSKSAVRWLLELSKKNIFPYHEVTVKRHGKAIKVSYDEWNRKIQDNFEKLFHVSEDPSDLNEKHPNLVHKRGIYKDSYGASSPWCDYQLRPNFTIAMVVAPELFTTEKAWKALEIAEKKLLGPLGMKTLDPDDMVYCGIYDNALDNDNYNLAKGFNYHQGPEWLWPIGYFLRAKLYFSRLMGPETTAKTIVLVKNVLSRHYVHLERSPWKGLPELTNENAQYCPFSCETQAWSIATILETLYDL
UniProt P04075: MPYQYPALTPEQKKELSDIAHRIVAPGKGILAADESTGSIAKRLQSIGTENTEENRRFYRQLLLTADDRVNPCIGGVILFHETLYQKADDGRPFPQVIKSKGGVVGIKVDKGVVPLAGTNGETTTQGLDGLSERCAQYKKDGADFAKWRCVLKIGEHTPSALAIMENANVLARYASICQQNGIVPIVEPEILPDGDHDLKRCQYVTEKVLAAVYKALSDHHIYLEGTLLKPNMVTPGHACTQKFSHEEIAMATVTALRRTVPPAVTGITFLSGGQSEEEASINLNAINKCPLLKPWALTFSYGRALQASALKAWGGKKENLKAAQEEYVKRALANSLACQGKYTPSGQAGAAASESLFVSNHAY
UniProt Q9Y672: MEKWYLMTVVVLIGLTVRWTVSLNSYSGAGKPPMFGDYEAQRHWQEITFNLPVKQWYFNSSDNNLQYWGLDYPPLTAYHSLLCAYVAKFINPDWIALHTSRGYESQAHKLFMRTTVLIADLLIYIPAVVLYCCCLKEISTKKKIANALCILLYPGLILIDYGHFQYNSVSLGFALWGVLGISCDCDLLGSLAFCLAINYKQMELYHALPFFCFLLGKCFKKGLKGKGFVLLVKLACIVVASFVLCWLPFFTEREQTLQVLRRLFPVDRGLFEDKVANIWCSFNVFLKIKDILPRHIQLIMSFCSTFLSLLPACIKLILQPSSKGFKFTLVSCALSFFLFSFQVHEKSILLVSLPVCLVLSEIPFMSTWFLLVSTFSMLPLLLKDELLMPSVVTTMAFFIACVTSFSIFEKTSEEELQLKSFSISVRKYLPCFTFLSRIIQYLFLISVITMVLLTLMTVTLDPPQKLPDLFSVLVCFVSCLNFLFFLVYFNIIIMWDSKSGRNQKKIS
UniProt Q92667: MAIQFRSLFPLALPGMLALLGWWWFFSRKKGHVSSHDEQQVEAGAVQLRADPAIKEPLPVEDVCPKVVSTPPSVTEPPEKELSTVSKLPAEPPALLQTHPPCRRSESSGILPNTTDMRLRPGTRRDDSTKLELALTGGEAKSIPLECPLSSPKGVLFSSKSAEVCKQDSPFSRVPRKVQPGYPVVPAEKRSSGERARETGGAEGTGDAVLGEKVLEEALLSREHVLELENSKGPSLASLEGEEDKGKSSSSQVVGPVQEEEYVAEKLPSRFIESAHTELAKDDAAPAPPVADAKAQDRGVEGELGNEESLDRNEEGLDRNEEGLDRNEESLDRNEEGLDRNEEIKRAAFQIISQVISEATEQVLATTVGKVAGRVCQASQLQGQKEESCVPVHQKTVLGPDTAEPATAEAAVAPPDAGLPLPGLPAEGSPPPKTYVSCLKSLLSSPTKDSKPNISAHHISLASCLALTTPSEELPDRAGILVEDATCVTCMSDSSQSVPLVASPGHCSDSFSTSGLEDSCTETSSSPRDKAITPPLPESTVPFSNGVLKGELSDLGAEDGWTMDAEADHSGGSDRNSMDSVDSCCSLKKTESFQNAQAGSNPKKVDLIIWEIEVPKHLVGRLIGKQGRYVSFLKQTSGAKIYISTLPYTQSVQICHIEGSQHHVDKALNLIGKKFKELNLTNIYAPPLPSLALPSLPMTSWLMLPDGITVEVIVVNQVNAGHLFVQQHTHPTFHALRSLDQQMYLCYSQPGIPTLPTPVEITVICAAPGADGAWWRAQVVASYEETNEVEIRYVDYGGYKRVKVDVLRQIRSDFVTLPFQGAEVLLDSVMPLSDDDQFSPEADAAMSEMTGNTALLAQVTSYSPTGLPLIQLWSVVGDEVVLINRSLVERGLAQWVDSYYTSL
UniProt Q9BT22: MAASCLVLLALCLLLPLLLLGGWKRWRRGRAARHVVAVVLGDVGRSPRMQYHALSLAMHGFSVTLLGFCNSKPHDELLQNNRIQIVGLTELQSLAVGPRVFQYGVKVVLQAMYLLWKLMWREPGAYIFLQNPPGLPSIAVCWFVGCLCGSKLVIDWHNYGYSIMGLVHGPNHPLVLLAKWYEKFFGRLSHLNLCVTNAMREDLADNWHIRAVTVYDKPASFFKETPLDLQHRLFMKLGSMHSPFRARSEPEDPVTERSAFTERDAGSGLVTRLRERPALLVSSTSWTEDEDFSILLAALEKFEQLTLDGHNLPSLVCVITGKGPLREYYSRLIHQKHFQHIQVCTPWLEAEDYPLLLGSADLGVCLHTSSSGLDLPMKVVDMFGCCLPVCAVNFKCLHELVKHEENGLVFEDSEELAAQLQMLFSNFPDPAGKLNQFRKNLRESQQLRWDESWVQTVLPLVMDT
UniProt Q9UM13, whole entry, looked up: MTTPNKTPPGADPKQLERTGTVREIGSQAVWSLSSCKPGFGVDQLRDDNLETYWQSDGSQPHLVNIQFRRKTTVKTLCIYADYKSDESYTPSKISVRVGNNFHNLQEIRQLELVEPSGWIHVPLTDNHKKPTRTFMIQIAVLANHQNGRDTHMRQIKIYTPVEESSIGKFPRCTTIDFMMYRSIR
UniProt P52594: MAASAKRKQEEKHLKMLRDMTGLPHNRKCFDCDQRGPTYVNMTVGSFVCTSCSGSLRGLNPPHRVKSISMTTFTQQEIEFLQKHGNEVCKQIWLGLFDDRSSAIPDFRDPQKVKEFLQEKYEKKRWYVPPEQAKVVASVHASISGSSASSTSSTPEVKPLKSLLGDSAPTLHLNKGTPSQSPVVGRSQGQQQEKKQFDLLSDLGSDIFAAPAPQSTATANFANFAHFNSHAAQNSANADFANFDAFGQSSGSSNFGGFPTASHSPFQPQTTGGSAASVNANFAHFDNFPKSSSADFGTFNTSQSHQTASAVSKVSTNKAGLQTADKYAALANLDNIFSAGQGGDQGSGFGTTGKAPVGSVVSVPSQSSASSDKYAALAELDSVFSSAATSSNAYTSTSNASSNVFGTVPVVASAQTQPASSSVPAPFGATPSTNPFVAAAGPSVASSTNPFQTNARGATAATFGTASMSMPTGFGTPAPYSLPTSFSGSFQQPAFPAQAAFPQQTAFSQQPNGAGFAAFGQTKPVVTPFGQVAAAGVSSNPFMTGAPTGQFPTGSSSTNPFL
UniProt Q96HN2, whole entry, looked up: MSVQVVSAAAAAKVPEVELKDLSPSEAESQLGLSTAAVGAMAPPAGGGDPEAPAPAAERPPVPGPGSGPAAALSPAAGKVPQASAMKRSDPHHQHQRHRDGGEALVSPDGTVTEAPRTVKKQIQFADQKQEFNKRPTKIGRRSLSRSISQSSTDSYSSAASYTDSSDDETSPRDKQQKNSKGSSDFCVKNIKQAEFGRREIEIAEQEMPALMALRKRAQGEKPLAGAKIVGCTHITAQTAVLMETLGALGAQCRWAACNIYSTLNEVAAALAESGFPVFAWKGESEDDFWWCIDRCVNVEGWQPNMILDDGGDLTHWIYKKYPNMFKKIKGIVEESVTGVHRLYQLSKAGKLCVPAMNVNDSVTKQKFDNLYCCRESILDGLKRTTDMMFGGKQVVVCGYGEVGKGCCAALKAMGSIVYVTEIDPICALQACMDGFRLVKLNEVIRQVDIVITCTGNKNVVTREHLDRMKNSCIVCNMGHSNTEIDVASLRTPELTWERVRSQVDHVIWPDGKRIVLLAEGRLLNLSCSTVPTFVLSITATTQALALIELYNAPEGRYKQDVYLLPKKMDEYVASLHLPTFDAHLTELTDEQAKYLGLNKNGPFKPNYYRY

What was measured:
Assay in all cases: log2 fold change, soluble protein after heating vs DMSO (PISA); higher = thermal stabilisation; K562 cells, 10 uM, 30 min; active = over 0.2 and 3.5 SD of the protein, either way, in both replicates (recomputed)
[1] = compound: CC[C@@H]1C(=O)N(C)c2cnc(Nc3ccc(C(=O)NC4CCN(C)CC4)cc3OC)nc2N1C1CCCC1
Method in brief: (§1)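 Soluble protein was quantified by TMTpro 16plex LC-MS/MS after channel sums were equalised. It was obtained as the supernatant after 21,000xg for 90 min from pooled aliquots of K562 cells (2×10^6 cells/mL, 10 μM compound, 30 min) heated for 3 min across 48°C-58°C and extracted in PBS with 0.5% NP-40 at 4°C. Thermal stability values are relative to control samples and come from duplicates. They are given as log2 fold changes.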

[2] = compound: CC[C@@H]1C(=O)N(C)c2cnc(Nc3ccc(C(=O)N[C@H]4CC[C@H](N5CCN(CC6CC6)CC5)CC4)cc3OC)nc2N1C(C)C [volasertib]
Method in brief: as §1

[3] = compound: CC[C@H](C)N1C=C(C2=C(C=C(C=C21)C3=CN=C(C=C3)N4CCNCC4)C(=O)NCC5=C(C=C(NC5=O)C)C)C
Method in brief: as §1

[4] = compound: CC[C@H](C)[C@@H](C(=O)N[C@@H]([C@@H](C)O)C(=O)N[C@@H](CC(C)C)C(=O)[C@]1(CO1)C)NC(=O)[C@H]([C@@H](C)CC)N(C)C(=O)C [epoxomicin]
Method in brief: as §1

[5] = compound: CCn1c(C(=O)N(C2CC2)C2CC2)cc2c3c(ncn3C)c(Nc3cc(C)n(C)n3)nc21
Method in brief: as §1

[6] = compound: CCn1cc(-c2ccnc3[nH]c(-c4cccc(CN(C)C)c4)cc23)c(-c2ccc(NC(=O)N(C)C)cc2)n1
Method in brief: as §1

[7] = compound: CN(C)CC(=O)Nc1ccc2[nH]c(=O)c3ccccc3c2c1
Method in brief: as §1

[8] = compound: CN(CCOC1=CC=C(C=C1)C[C@H]2C(=O)NC(=O)S2)C3=CC=CC=N3 (racemic) [rosiglitazone]
Method in brief: as §1

[9] = compound: CN1C2=C(C3=C1C(=O)N(N=C3)CC4=CC(=CC=C4)N)SC(=C2)S(=O)C
Method in brief: as §1

[10] = compound: CN1CCC(CNc2ccc3ncc(-c4cccc(OC(F)(F)F)c4)n3n2)CC1
Method in brief: as §1

[11] = compound: CN1CCN(CCOc2cc(OC3CCOCC3)c3c(Nc4c(Cl)ccc5c4OCO5)ncnc3c2)CC1 [saracatinib]
Method in brief: as §1

[12] = compound: CN1CCN(c2nc(C3=C(c4c[nH]c5ccccc45)C(=O)NC3=O)c3ccccc3n2)CC1 [sotrastaurin]
Method in brief: as §1

[13] = compound: CN1CC[C@H](c2c(O)cc(O)c3c(=O)cc(-c4ccccc4Cl)oc23)[C@H](O)C1 [alvocidib]
Method in brief: as §1

[14] = compound: CN1CCc2c(c3ccccc3n2Cc2ccc(C(=O)NO)cc2)C1 [Tubastatin A]
Method in brief: as §1

[15] = compound: CNC(=O)C1=CC=CC=C1NC2=NC(=NC=C2Cl)NC3=C(C=C(C=C3)N4CCOCC4)OC
Method in brief: as §1

[16] = compound: CNC(=O)c1ccc(Nc2ncc(C(F)(F)F)c(NCc3nccnc3N(C)S(C)(=O)=O)n2)cc1 [defactinib]
Method in brief: as §1

[17] = compound: CNCc1ccc(-c2[nH]c3cc(F)cc4c3c2CCNC4=O)cc1 [rucaparib]
Method in brief: as §1

[18] = compound: CNc1nc(-c2ccc3c(N)n[nH]c3c2)cc(N2C[C@@H](C(=O)NC3CCCCC3)CC[C@H]2C)n1
Method in brief: as §1

[19] = compound: COC(=O)N[C@@H](C)CNc1nccc(-c2cn(C(C)C)nc2-c2cc(Cl)cc(NS(C)(=O)=O)c2F)n1 [encorafenib]
Method in brief: as §1

[20] = compound: COC(=O)[C@H](CCSC)NC(=O)C1=C(C=C(C=C1)NC[C@H](CS)N)C2=CC=CC=C2
Method in brief: as §1

Measured: log2 fold change

ADO (UniProt Q96SZ5)
inactive: [1] -0.024 | [2] 0.05 | [3] -0.04 | [4] 0.021 | [5] -0.011 | [6] -0.019 | [7] 0.016 | [8] 0.013 | [9] -0.046 | [10] 0.047 | [11] 0.005 | [12] 0.024 | [13] -0.023 | [14] -0.04 | [15] -0.081 | [16] -0.012 | [17] -0.067 | [18] -0.015 | [19] -0.082 | [20] 0.065

AMPD3 isoform 4 (UniProt Q01432)
inactive: [1] 0.01 | [2] 0.04 | [3] 0.01 | [4] 0.024 | [5] 0.01 | [6] -0.016 | [7] -0.006 | [8] 0.042 | [9] -0.03 | [10] -0.076 | [11] -0.038 | [12] 0.04 | [13] -0.043 | [14] -0.058 | [15] -0.046 | [16] -0.031 | [17] -0.03 | [18] -0.001 | [19] -0.008 | [20] 0.024

AIMP2 (UniProt Q13155)
inactive: [1] 0.099 | [2] 0.097 | [3] 0.043 | [4] -0.361 | [5] -0.218 | [6] 0.187 | [7] 0 | [8] -0.035 | [9] 0.424 | [10] 0.067 | [11] -0.121 | [12] -0.037 | [13] 0.251 | [14] 0.025 | [15] -0.104 | [16] 0.31 | [17] 0.418 | [18] 0.183 | [19] 0.102 | [20] -0.046

AGL (UniProt P35573)
inactive: [1] 0.206 | [2] 0.288 | [3] 0.035 | [4] -0.172 | [5] -0.007 | [6] 0.039 | [7] -0.058 | [8] 0.014 | [9] 0.172 | [10] 0.004 | [11] -0.16 | [12] -0.129 | [13] 0.064 | [14] 0.059 | [15] 0.072 | [16] 0.061 | [17] 0.148 | [18] 0.086 | [19] 0.085 | [20] -0.024

ADSS1 (UniProt Q8N142)
inactive: [1] 0.084 | [2] 0.046 | [3] -0.07 | [4] -0.062 | [5] -0.012 | [6] -0.056 | [7] -0.017 | [8] 0.02 | [9] -0.139 | [10] 0.036 | [11] 0.044 | [12] 0.051 | [13] -0.011 | [14] 0.034 | [15] -0.018 | [16] 0 | [17] -0.029 | [18] -0.031 | [19] 0.003 | [20] 0.029

ALDOA isoform 2 (UniProt P04075)
inactive: [1] -0.022 | [2] 0.058 | [3] -0.049 | [4] -0.004 | [5] 0.047 | [6] 0.013 | [7] -0.018 | [8] -0.005 | [9] -0.05 | [10] -0.01 | [11] 0.007 | [12] 0.027 | [13] -0.021 | [14] -0.017 | [15] 0.128 | [16] 0.026 | [17] -0.024 | [18] -0.006 | [19] -0.017 | [20] 0.029

ALG13 (UniProt Q9NP73)
inactive: [1] 0.054 | [2] 0.007 | [3] 0.045 | [4] 0.126 | [5] 0.056 | [6] -0.046 | [7] 0.049 | [8] -0.002 | [9] -0.033 | [10] -0.075 | [11] 0.01 | [12] -0.12 | [13] -0.129 | [14] 0.045 | [15] 0.016 | [16] -0.035 | [17] -0.002 | [18] 0.035 | [19] 0.016 | [20] 0.021

ALG6 (UniProt Q9Y672)
inactive: [1] 0.018 | [2] 0.023 | [3] 0.074 | [4] -0.079 | [5] -0.033 | [6] -0.082 | [7] 0.091 | [8] 0.057 | [9] -0.064 | [10] -0.16 | [11] 0.07 | [12] -0.065 | [13] 0.055 | [14] 0.027 | [15] 0.038 | [16] -0.118 | [17] -0.049 | [18] -0.026 | [19] 0.161 | [20] -0.019

ADI1 (UniProt Q9BV57)
inactive: [1] 0.018 | [2] -0.013 | [3] 0.079 | [4] -0.006 | [5] -0.04 | [6] -0.01 | [7] 0.058 | [8] 0.069 | [9] 0.061 | [10] -0.06 | [11] -0.255 | [12] -0.07 | [13] -0.059 | [14] -0.138 | [15] 0.064 | [16] -0.045 | [17] -0.051 | [18] -0.068 | [19] -0.012 | [20] 0.16

AKAP1 (UniProt Q92667)
inactive: [1] 0.041 | [2] -0.077 | [3] 0.112 | [4] -0.102 | [5] -0.063 | [6] 0.041 | [7] 0.025 | [8] 0.001 | [9] 0.165 | [10] 0.026 | [11] -0.132 | [12] -0.112 | [13] 0.027 | [14] 0.027 | [15] -0.024 | [16] -0.019 | [17] 0.195 | [18] 0.057 | [19] 0.02 | [20] -0.024

ALG1 (UniProt Q9BT22)
inactive: [1] -0.038 | [2] -0.01 | [3] -0.012 | [4] 0.084 | [5] -0.097 | [6] -0.078 | [7] 0.014 | [8] 0.024 | [9] -0.065 | [10] 0.006 | [11] -0.006 | [12] -0.098 | [13] 0.015 | [14] -0.007 | [15] 0.081 | [16] 0 | [17] -0.099 | [18] 0.008 | [19] 0.035 | [20] -0.06

ANAPC10 (UniProt Q9UM13)
inactive: [1] 0.206 | [2] -0.074 | [3] -0.028 | [4] 0.005 | [5] -0.006 | [6] -0.008 | [7] 0.075 | [8] 0.005 | [9] 0.025 | [10] -0.119 | [11] -0.08 | [12] -0.072 | [13] 0.024 | [14] 0.076 | [15] 0.026 | [16] -0.047 | [17] -0.168 | [18] 0.042 | [19] 0.161 | [20] -0.041

Retrieved one by one from the list above (2):
ALG13 (UniProt Q9NP73)
inactive: [1] 0.054 | [2] 0.007 | [3] 0.045 | [4] 0.126 | [5] 0.056 | [6] -0.046 | [7] 0.049 | [8] -0.002 | [9] -0.033 | [10] -0.075 | [11] 0.01 | [12] -0.12 | [13] -0.129 | [14] 0.045 | [15] 0.016 | [16] -0.035 | [17] -0.002 | [18] 0.035 | [19] 0.016 | [20] 0.021

ADI1 (UniProt Q9BV57)
inactive: [1] 0.018 | [2] -0.013 | [3] 0.079 | [4] -0.006 | [5] -0.04 | [6] -0.01 | [7] 0.058 | [8] 0.069 | [9] 0.061 | [10] -0.06 | [11] -0.255 | [12] -0.07 | [13] -0.059 | [14] -0.138 | [15] 0.064 | [16] -0.045 | [17] -0.051 | [18] -0.068 | [19] -0.012 | [20] 0.16

Later entries:

AGFG1 isoform 4 (UniProt P52594)
inactive: [1] -0.043 | [2] -0.209 | [3] 0.061 | [4] 0.05 | [5] 0.001 | [6] -0.026 | [7] 0.002 | [8] -0.002 | [9] -0.022 | [10] 0.158 | [11] 0.039 | [12] -0.055 | [13] -0.086 | [14] -0.033 | [15] 0.001 | [16] 0.01 | [17] -0.041 | [18] -0.048 | [19] 0.065 | [20] -0.048

ADSS2 (UniProt P30520)
inactive: [1] 0.033 | [2] 0.045 | [3] -0.012 | [4] -0.035 | [5] 0.007 | [6] -0.011 | [7] 0.006 | [8] 0.013 | [9] -0.108 | [10] -0.002 | [11] -0.023 | [12] 0.025 | [13] -0.006 | [14] 0.004 | [15] -0.022 | [16] -0.033 | [17] -0.096 | [18] 0.021 | [19] -0.018 | [20] 0.011

AHCYL2 (UniProt Q96HN2)
inactive: [1] -0.021 | [2] 0.042 | [3] -0.028 | [4] 0.034 | [5] 0.004 | [6] 0.013 | [7] -0.02 | [8] 0.017 | [9] -0.069 | [10] -0.044 | [11] 0.012 | [12] 0.014 | [13] 0.078 | [14] -0.093 | [15] 0.037 | [16] 0.017 | [17] -0.037 | [18] -0.013 | [19] -0.059 | [20] 0.011

AK2 isoform 2 (UniProt P54819)
inactive: [1] 0.009 | [2] 0.124 | [3] -0.033 | [4] 0.002 | [5] 0 | [6] -0.003 | [7] -0.017 | [8] 0.014 | [9] -0.034 | [10] -0.011 | [11] 0.015 | [12] 0.036 | [13] 0.015 | [14] -0.006 | [15] -0.024 | [16] -0.01 | [17] -0.028 | [18] -0.033 | [19] -0.038 | [20] 0.031
